Reference: article PMC12170836
No constants are given. Whether binding was seen depends on the method and setting. Binding seen in cells or lysates may run through a third protein. Some results given as binding are weak or reduced against the parent protein; the word gives no strength. For some assays here: Tags and fused reporters may be left off the sequences shown.

How the values were obtained:
[1] = target: YTHDC1 W378A-FLAG (UniProt E9Q5K9); experiment: co-IP; primary white adipocytes (Appendix Fig. S6B); adenoviral infection
[2] = target: T1, ARIH2-FLAG (UniProt Q9Z1K6); experiment: co-IP; HEK293T cells co-transfected for 30 h; lysates in RIPA buffer; immunoprecipitated with anti-FLAG beads, immunoblotted with anti-HA and anti-FLAG; for the ARIH2-FLAG panels cells were treated with MG132 (20 μM) for 6 h
T1 sequence: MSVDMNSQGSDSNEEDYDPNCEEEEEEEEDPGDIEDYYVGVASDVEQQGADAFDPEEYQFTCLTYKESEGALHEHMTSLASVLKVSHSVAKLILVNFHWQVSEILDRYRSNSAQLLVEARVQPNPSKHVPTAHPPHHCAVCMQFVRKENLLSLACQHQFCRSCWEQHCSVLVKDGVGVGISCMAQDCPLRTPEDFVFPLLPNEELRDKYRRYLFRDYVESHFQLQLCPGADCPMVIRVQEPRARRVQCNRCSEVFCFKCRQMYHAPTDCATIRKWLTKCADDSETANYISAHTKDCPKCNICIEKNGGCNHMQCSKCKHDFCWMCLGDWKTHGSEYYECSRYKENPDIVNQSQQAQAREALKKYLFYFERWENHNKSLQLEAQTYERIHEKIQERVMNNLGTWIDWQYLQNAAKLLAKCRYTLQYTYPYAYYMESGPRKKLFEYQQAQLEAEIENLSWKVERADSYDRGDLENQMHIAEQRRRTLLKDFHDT

[3] = target: YTHDC1 W378A-FLAG (UniProt E9Q5K9); experiment: as above
[4] = target: T1, ARIH2-FLAG; experiment: co-IP; primary brown adipocytes co-infected with adenoviruses (48 h; overnight for Ad-ARIH2-FLAG); lysates in RIPA buffer; immunoprecipitated with anti-FLAG beads, immunoblotted with anti-HA and anti-FLAG; for the ARIH2-FLAG panel cells were treated with MG132 (20 μM) for 6 h
[5] = target: YTHDC1 W378A-FLAG (UniProt E9Q5K9); experiment: as above

Measured: binding

PPARγ-HA (from UniProt P37238 1-505)
binds: all assays above
